We go through one substance from publication PMC9918736.

The chains behind the UniProt entries cited, without tags or fusion partners. Residues count along the entry.
UniProt Q8VI56, residues 21-1725: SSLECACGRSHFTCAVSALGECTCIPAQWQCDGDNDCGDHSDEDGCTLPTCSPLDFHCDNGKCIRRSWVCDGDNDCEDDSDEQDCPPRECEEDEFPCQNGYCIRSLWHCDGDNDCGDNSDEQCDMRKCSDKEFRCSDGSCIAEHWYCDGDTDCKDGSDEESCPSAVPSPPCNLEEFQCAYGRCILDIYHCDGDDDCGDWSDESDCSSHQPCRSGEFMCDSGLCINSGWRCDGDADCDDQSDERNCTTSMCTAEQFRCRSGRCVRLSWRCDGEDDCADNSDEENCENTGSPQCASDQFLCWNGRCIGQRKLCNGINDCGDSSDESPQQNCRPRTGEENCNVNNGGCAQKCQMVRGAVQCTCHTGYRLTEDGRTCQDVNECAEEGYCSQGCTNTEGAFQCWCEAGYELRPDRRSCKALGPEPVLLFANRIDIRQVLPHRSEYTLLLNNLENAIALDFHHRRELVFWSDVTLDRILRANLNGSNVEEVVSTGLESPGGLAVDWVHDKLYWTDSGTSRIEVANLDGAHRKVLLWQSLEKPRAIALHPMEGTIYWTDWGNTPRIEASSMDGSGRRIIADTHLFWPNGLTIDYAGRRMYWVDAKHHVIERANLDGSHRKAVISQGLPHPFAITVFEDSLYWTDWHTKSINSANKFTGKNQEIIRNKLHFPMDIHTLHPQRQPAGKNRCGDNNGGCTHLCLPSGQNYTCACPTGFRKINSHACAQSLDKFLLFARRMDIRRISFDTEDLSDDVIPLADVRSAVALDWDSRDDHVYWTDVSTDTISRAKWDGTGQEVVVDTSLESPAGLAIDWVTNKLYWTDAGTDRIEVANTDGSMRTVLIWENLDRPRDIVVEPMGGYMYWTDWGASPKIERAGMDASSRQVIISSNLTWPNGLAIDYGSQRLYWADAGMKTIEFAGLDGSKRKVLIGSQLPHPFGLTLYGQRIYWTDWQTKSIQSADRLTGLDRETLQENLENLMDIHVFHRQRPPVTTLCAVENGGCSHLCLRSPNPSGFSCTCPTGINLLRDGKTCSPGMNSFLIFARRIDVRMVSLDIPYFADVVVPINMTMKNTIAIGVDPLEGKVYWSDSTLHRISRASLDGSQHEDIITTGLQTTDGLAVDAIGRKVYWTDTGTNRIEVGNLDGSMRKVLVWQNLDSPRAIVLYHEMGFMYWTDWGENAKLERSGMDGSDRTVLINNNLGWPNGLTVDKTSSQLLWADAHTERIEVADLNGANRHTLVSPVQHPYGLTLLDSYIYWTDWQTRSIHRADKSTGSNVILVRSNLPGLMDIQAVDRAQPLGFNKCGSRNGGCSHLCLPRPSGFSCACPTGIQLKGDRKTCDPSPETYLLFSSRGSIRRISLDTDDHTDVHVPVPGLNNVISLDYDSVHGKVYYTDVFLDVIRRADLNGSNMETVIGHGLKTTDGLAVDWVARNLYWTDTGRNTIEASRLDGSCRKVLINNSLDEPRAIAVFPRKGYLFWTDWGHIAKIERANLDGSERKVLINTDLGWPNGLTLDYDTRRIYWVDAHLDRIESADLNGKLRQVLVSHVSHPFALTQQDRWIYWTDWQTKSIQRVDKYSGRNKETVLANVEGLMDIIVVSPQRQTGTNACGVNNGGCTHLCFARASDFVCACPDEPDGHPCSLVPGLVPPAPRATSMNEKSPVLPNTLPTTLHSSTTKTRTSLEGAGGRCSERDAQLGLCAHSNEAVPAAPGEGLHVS
UniProt P12023, residues 18-770: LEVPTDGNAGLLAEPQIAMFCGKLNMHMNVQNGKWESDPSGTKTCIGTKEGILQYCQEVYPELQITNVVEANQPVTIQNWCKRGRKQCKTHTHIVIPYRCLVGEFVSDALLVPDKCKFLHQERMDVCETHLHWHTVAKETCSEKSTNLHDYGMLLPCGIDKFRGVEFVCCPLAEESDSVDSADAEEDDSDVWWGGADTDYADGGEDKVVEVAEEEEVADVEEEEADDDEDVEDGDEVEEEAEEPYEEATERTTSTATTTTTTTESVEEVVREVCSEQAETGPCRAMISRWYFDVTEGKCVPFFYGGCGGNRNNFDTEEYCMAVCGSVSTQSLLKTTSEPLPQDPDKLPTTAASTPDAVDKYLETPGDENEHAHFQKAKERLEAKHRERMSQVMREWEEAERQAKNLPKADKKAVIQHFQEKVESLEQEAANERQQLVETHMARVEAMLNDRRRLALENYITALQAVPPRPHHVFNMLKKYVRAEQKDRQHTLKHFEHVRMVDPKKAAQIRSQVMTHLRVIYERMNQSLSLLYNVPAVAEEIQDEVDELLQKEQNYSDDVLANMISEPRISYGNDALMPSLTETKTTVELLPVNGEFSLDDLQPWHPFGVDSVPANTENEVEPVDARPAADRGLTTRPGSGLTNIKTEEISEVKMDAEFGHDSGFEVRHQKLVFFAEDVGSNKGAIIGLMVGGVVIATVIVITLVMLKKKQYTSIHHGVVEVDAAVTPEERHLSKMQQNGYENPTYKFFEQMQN

These are yes or no findings as the source states them, for the method shown. Binding seen in cells or lysates may run through a third protein. Some results given as binding are weak or reduced against the parent protein; the word gives no strength.

This test has as its target Flag-tagged ECD of LRP4 (UniProt Q8VI56). The test is described as follows: co-IP; HEK293 cells co-transfected with APP constructs and Flag-tagged LRP4 ECD constructs; lysates in modified RIPA buffer (150 mM NaCl, 2.5 mM EDTA, 50 mM Tris-HCl) incubated with anti-Flag beads 4-5 h or overnight at 4 °C; immunocomplexes probed with anti-APP antibody.

“GFP-APP (amyloid precursor protein) (from UniProt P12023 18-770)”: the binding entry is “binds”.
